According to paper PMC8657793, “Synthesis, In Vitro and In Silico Anticancer Activity of New 4-Methylbenzamide Derivatives Containing 2,6-Substituted Purines as Potential Protein Kinases Inhibitors” (International Journal of Molecular Sciences, 2021):

Experiments:
[1] = system: K562 (chronic myelogenous leukemia); assay: MTT anti-proliferative assay, K562; assay type: cell-based, human; settings: 48 h
Experimental: (§1) To determine the selectivity of the synthesized compounds 7–16 toward various cancer cells and normal human cells, the anti-proliferative activity against K562 (chronic myelogenous leukemia), HL-60 (promyelocytic leukemia), MCF-7 (breast adenocarcinoma), HeLa (cervix carcinoma), HepG2 (human liver cancer), A549 (lung carcinoma), OKP-GS (renal cell carcinoma), and normal cells RPMI 1788 (B lymphocyte, the human cell line) was investigated.
(§2) Each in vitro experiment was performed at least in triplicate and the standard deviation of absorbance was less than 10% of the mean. For the in vitro assays, a stock solution (1% DMSO in the appropriate buffer with the tested compound diluted under sonication) was prepared from which several dilutions were made with the appropriate buffer.
(§3) Human cell lines were obtained from the Institute of Cytology, Russian Academy of Sciences. […] Cellular sensitivities to synthesized compounds and standards were measured with the MTT assay. […] The optical density was read on a HALO MPR-95 Microplate Reader (Dynamica Scientific Ltd., Melbourne, Victoria, Australia) at 570 nm. […] The average of three parallel measurements was calculated for each concentration of test compound. […] The half maximal inhibitory concentration (IC50) was determined graphically for active compounds.

[2] = system: HL-60 (promyelocytic leukemia); assay: MTT anti-proliferative assay, HL-60; assay type: cell-based; settings: Homo sapiens, 48 h
Experimental: as §1, §2, §3

## Cc1ccc(NC(=O)c2ccc(CN3CCN(C)CC3)cc2)cc1Nc1nccc(-c2cccnc2)n1 [Imatinib, imatinib, reference compound]
[1]
  IC50: 0.06 ± 0.03 µM
[1]; listed as imatinib
  IC50: < 1 µM
[2]
  IC50: 10.2 µM
